PubChem BioAssay AID1508597 | Cure First, 2020
Test: 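Genes whose silencing sensitises or protects ovarian cancer cells against rucaparib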 (primary screen). Cell system: human ovarian carcinoma lines grown from tumours: OCI-P5x (papillary serous) and OCI-C5x (clear cell). Reagent: siRNA pool against human genes, 1.25 pmol siRNA per well. Timing: 72 h or 96 h, depending on the cell culture. Challenge: rucaparib 20 µM (about IC30) or vehicle, present until read-out. Rucaparib or vehicle: Rucaparib. Cell line: OCI-P5x (serous). Read-out: 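ATP luminescence measured at 72 or 96 h according to the culture, then normalised and expressed as percent viability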. Direction: viability, normalised: higher = more viable cells remaining. Hit rule: 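a well counts as a hit if its normalised viability is under 80 percent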. Calls: active = viability under 80%; inactive = viability 80% or more.
Shown is an unselected part of the about 2,100 reagents, in one setting of the screen. 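Calls flag viability under 80% in either arm, not effects specific to rucaparib; the reference for percent is not stated.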 Some reagents were tested in more than one well and are listed for each. No sequences are given here. Not given: the 100% reference.

{"Gene": "LTK", "technical replicate": "1", "viability, normalised (%)": 65, "outcome": "active"}
{"Gene": "LTK", "technical replicate": "2", "viability, normalised (%)": 60.3, "outcome": "active"}
{"Gene": "LTK", "technical replicate": "3", "viability, normalised (%)": 55.8, "outcome": "active"}
{"Gene": "RAD51C", "technical replicate": "1", "viability, normalised (%)": 72.5, "outcome": "active"}
{"Gene": "RAD51C", "technical replicate": "2", "viability, normalised (%)": 65.7, "outcome": "active"}
{"Gene": "RAD51C", "technical replicate": "3", "viability, normalised (%)": 58.3, "outcome": "active"}
{"Gene": "FECH", "technical replicate": "1", "viability, normalised (%)": 56, "outcome": "active"}
{"Gene": "FECH", "technical replicate": "2", "viability, normalised (%)": 77.3, "outcome": "active"}
{"Gene": "FECH", "technical replicate": "3", "viability, normalised (%)": 70.7, "outcome": "active"}
{"Gene": "ENY2", "technical replicate": "1", "viability, normalised (%)": 78.2, "outcome": "active"}
{"Gene": "ENY2", "technical replicate": "2", "viability, normalised (%)": 73.6, "outcome": "active"}
{"Gene": "ENY2", "technical replicate": "3", "viability, normalised (%)": 79.8, "outcome": "active"}
{"Gene": "JARID2", "technical replicate": "1", "viability, normalised (%)": 59.8, "outcome": "active"}
{"Gene": "JARID2", "technical replicate": "2", "viability, normalised (%)": 67.5, "outcome": "active"}
{"Gene": "JARID2", "technical replicate": "3", "viability, normalised (%)": 23.2, "outcome": "active"}
{"Gene": "CLDN7", "technical replicate": "1", "viability, normalised (%)": 69.3, "outcome": "active"}
{"Gene": "CLDN7", "technical replicate": "2", "viability, normalised (%)": 62.4, "outcome": "active"}
{"Gene": "CLDN7", "technical replicate": "3", "viability, normalised (%)": 60.2, "outcome": "active"}
{"Gene": "SOX21", "technical replicate": "1", "viability, normalised (%)": 25, "outcome": "active"}
{"Gene": "SOX21", "technical replicate": "2", "viability, normalised (%)": 19.7, "outcome": "active"}
{"Gene": "SOX21", "technical replicate": "3", "viability, normalised (%)": 21.5, "outcome": "active"}
{"Gene": "SETD7", "technical replicate": "1", "viability, normalised (%)": 43.9, "outcome": "active"}
{"Gene": "SETD7", "technical replicate": "2", "viability, normalised (%)": 50.7, "outcome": "active"}
{"Gene": "SETD7", "technical replicate": "3", "viability, normalised (%)": 50.8, "outcome": "active"}
{"Gene": "BUB1B", "technical replicate": "1", "viability, normalised (%)": 39.3, "outcome": "active"}
{"Gene": "BUB1B", "technical replicate": "1", "viability, normalised (%)": 74.8, "outcome": "active"}
{"Gene": "BUB1B", "technical replicate": "1", "viability, normalised (%)": 148, "outcome": "inactive"}
{"Gene": "BUB1B", "technical replicate": "2", "viability, normalised (%)": 49.1, "outcome": "active"}
{"Gene": "BUB1B", "technical replicate": "2", "viability, normalised (%)": 152, "outcome": "inactive"}
{"Gene": "BUB1B", "technical replicate": "2", "viability, normalised (%)": 68.5, "outcome": "active"}
{"Gene": "BUB1B", "technical replicate": "3", "viability, normalised (%)": 79.7, "outcome": "active"}
{"Gene": "BUB1B", "technical replicate": "3", "viability, normalised (%)": 112, "outcome": "inactive"}
{"Gene": "BUB1B", "technical replicate": "3", "viability, normalised (%)": 45.9, "outcome": "active"}
{"Gene": "PLCB4", "technical replicate": "1", "viability, normalised (%)": 59.2, "outcome": "active"}
{"Gene": "PLCB4", "technical replicate": "2", "viability, normalised (%)": 51.6, "outcome": "active"}
{"Gene": "PLCB4", "technical replicate": "3", "viability, normalised (%)": 48.2, "outcome": "active"}
{"Gene": "SETMAR", "technical replicate": "1", "viability, normalised (%)": 51.7, "outcome": "active"}
{"Gene": "SETMAR", "technical replicate": "1", "viability, normalised (%)": 125, "outcome": "inactive"}
{"Gene": "SETMAR", "technical replicate": "2", "viability, normalised (%)": 144, "outcome": "inactive"}
{"Gene": "SETMAR", "technical replicate": "2", "viability, normalised (%)": 69.2, "outcome": "active"}
{"Gene": "SETMAR", "technical replicate": "3", "viability, normalised (%)": 123, "outcome": "inactive"}
{"Gene": "SETMAR", "technical replicate": "3", "viability, normalised (%)": 59.5, "outcome": "active"}
